System: rat mandible
Assay: Bilateral rat mandible model, bone growth and inflammation, histomorphometry
Assay type: in vivo, Female Sprague Dawley rats
Settings: equivalent amounts of ALN: 50 μl of 400 mg/mL ALN-CD or 50 μl of 81 mg/ml ALN

`NCCCC(O)(P(=O)(O)O)P(=O)(O)O` [alendronate] was tested, and the “new bone width adjacent to where the formulations were injected” value was 0.14 ± 0.05 mm.
